Assay results from patent US9353152B2, “Induction of the mitochondrial permeability transition” (NewSouth Innovations Pty Limited, priority 2002, dated 2016).

Tested on: BAE cells
Assay: Sub-cellular localisation by confocal fluorescence microscopy
Format: cell-based, bovine
Settings: 50 μM, 1 h, Mitotracker Red counterstain

SMILES | mitochondrial localisation / staining of cells
O=[As]c1ccc(NC(=O)CSC[C@H](NC(=O)CC[C@H](NC(=O)CCCCCNC(=O)CCCCCNC(=O)CCCC[C@@H]2SC[C@@H]3NC(=O)N[C@@H]32)C(=O)O)C(=O)NCC(=O)O)cc1 (some centres unmarked) [GSAO-B, 4-(N—(S—(N-(6-((6-((biotinoyl)amino)hexanoyl)amino)hexanoyl)-glutathionyl)acetyl)amino) phenylarsenoxide] | Mitochondrial localisation was also seen
N[C@@H](CCC(=O)N[C@@H](CSCC(=O)Nc1ccc([As](=O)(O)O)cc1)C(=O)NCC(=O)O)C(=O)O [GSAA, 4-(N—((S-glutathionyl)acetyl)amino)-benzenearsonic acid, reference compound] | did not react with ANT or accumulate in mitochondria
